Measurements reported in PubChem BioAssay AID504444 (National Center for Advancing Translational Sciences (NCATS), 2011).
Out of some 360,000 compounds screened, about 7,500 (2.1%) were called active. The inconclusive results got no clear call from the source; some entries with a clear call stand among them for comparison. The call rests on the fitted dose curve; in most records, active means well fitted inhibition curve with a large enough effect; inconclusive means small, poorly fitted or top-dose-only effect, or effect the other way; inactive means flat fitted curve, though single readings scatter. Where the call is inconclusive, the potency comes from a doubtful curve fit.

experiment: Nrf2 qHTS screen for inhibitors; details: A549 ARE-Fluc reporter, luciferase luminescence, 18-24 h; series mostly up to 46 µM; further: nearly all actives have a fitted effect of over 60% in size
Method in brief: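 Quantitative HTS in A549 cells stably bearing an antioxidant response element-firefly luciferase construct. Inhibition of Nrf2-driven transcription was scored by luminescence after 18-24 h of compound exposure at 37 °C.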
Potency means the concentration at half of the fitted maximal effect.

SMILES	Potency
CCOc1ccc(S(=O)(=O)N2CCCCC2)c(C)c1C	inconclusive: 0.0052 µM [falling, full curve, poor fit]
CN(C)c1ccc(/C=N/n2c(C3CCCCC3)n[nH]c2=S)cc1	inconclusive: 20.6 µM [falling, single point]
CCOC(=O)c1oc2c(c1C)-c1nn(Cc3ccccc3Cl)cc1CC2	inconclusive: 29.1 µM [falling, single point]
CCc1ccccc1NC(=O)CN1C(=O)c2cccnc2Oc2ccc(Cl)cc21	inactive
CCOC(=O)c1c(NC(=O)CSc2nnc(-c3c[nH]c4ccccc34)n2CCOC)sc2c1CCCCC2	inconclusive: 29.1 µM [falling, single point]
c1ccc2sc(-c3ccc4c(c3)OCO4)nc2c1	inconclusive: 0.58 µM [activator, full curve]
O=C(Nc1cc([N+](=O)[O-])ccc1F)c1ccc2ccccc2c1	inconclusive: 20.6 µM [falling, partial curve, poor fit]
NC(C(=O)O)C1ON=C(Cl)C1O (configuration not stated)	inconclusive: 7.31 µM [falling, partial curve]
CCOc1ccc(Br)cc1CNCCSc1nnnn1-c1ccccc1	inactive
O=C(CSCc1ccccc1F)NCc1ccccc1	inconclusive: 5.17 µM [activator, full curve]
COc1ccccc1C(=O)OCc1cc(=O)n2ccsc2n1	inconclusive: 16.4 µM [activator, partial curve]
CCc1noc(C)c1C(=O)OCC(=O)N1CCc2ccccc21	inactive
C/C(=N\NS(=O)(=O)c1ccc(C(C)(C)C)cc1)c1ccccc1	inconclusive: 23.1 µM [falling, single point]
COc1ccc(CNc2cc(-c3ccc(OC)cc3)nc3nncn23)cc1	inconclusive: 20.6 µM [falling, single point]
O=C(Nc1cc(Sc2nc3ccccc3s2)cc([N+](=O)[O-])c1)c1ccccc1F	inconclusive: 9.2 µM [falling, partial curve]
CC(=O)N1c2ccc(S(=O)(=O)N3CCC(C(=O)N4CCN(c5cc(Cl)ccc5C)CC4)CC3)cc2CC1C (configuration not stated)	inconclusive: 25.9 µM [falling, partial curve, poor fit]
O=C(COc1ccc(Cl)cc1Cl)N/N=C1\CCCc2ccccc21	inconclusive: 29.1 µM [falling, single point]
CCN(CC)S(=O)(=O)c1cccc(NC(=O)COc2ccc(C#N)cc2OC)c1	inactive
CN(C)c1ccc(-c2ccc3oc(-c4ccsc4)cc(=O)c3c2)cn1	inconclusive: 3.66 µM [activator, full curve, poor fit]
CCOC(=O)C1CCCCN1Cc1cccc(OCc2ccccc2)c1 (configuration not stated)	inactive
O=C(NCc1cccc(C(F)(F)F)c1)N1CCN(S(=O)(=O)c2ccccc2F)CC1	inconclusive: 29.1 µM [falling, single point]

SMILES	Potency
Cc1ccc(C)c(N2CCN(c3nc4ccccc4n4c(C)nnc34)CC2)c1	inconclusive: 29.1 µM [falling, single point]
COc1ccc(-c2nnn(CC(=O)N(CCN3CCOCC3)C(C(=O)NC3CCCC3)c3ccco3)n2)cc1 (configuration not stated)	inactive
Cc1ccc(NC(=S)Nc2ccc(S(=O)(=O)Nc3ncccn3)cc2)c(C)c1	inconclusive: 10.3 µM [activator, partial curve]
COc1ccc(NC(=O)CN(C)C(=O)c2cccc(S(=O)(=O)N3CCN(c4ccc(F)cc4)CC3)c2)cc1	active: 5.8 µM
CCOc1ccc2nc(NC(=O)c3cnccn3)sc2c1	inconclusive: 5.8 µM [activator, partial curve]
CCC(=O)NC(=S)NNC(=O)c1ccc(OC)cc1	inconclusive: 9.2 µM [falling, partial curve, poor fit]
Cc1csc2ncc(C(=O)NC(C)c3ccccc3)c(=O)n12 (configuration not stated)	inconclusive: 16.4 µM [falling, single point]
CCOC(=O)N1CCC2(CC1)OC(=O)C(C)=C2C(=O)NCc1cccc(OC)c1	inconclusive: 29.1 µM [activator, single point]
COc1ccc(NC(=O)CC2C(=O)N(c3ccc(C)cc3)C(=O)N2Cc2cccnc2)cc1 (configuration not stated)	inactive
CCOC(=O)c1c(C)[nH]c(C(=O)OC/C(O)=C(\C#N)c2nc3ccccc3[nH]2)c1C	inconclusive: 25.1 µM [falling, single point]
CC(=O)Nc1cccc(/C(C)=N/Nc2ccc(S(=O)(=O)Nc3ccccc3C(=O)O)cc2[N+](=O)[O-])c1	inactive
Cc1ccc(-n2ccnc(SCC(=O)NC3CCCCC3)c2=O)cc1F	inconclusive: 32.6 µM [falling, single point]
CC/C(=N\NC(=O)Nc1nonc1N)c1ccc(OC)c(OC)c1	inconclusive: 18.4 µM [activator, single point]
O=C(COc1ccccc1Br)NCCc1nc2ccccc2[nH]1	inconclusive: 4.61 µM [falling, partial curve, poor fit]
COCC(=O)Nc1nc2ccc(C)cc2s1	inconclusive: 29.1 µM [activator, single point]
Nc1ccc(-c2nnn(Cc3ccccc3)n2)cc1	inconclusive: 16.4 µM [activator, single point]
C/C(=N\Nc1ccc(Cl)c(C(=O)O)c1)c1ccc2c(c1)OCO2	inconclusive: 16.4 µM [activator, partial curve, poor fit]
CC(C)(C)c1nc(SCC(=O)NNC(=O)c2ccccc2)c2ccccc2n1	inconclusive: 32.6 µM [falling, single point]
Cc1ccc(N(C)S(=O)(=O)c2cccc(C(=O)Nc3ccc(C)cn3)c2)cc1	inconclusive: 25.9 µM [falling, single point]
COc1ccc(CCNC(=O)c2ccc(CS(=O)(=O)Cc3cccc(C)c3)o2)cc1OC	inconclusive: 14.6 µM [falling, partial curve, poor fit]
Cn1nnc(NCc2cc(Br)ccc2OCc2cccs2)n1	inconclusive: 14.6 µM [falling, single point]
